Results published in PMC6210257.
Results are given in words; binding and its absence hold for the method and conditions named. Binding seen in cells or lysates may run through a third protein. Some binding calls cover weakened binding; strength is not graded here.

Sequences of proteins named here, by UniProt entry; tags and fusion partners are left off.
UniProt P67809: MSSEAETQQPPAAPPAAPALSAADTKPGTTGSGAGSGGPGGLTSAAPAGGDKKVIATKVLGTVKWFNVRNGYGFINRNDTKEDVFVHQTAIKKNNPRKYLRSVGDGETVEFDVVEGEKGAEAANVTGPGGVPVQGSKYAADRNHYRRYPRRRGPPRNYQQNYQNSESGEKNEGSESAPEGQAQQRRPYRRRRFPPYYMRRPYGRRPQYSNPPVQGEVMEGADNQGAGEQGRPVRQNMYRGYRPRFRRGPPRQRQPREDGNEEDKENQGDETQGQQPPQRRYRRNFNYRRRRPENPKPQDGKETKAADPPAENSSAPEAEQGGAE
UniProt P11940: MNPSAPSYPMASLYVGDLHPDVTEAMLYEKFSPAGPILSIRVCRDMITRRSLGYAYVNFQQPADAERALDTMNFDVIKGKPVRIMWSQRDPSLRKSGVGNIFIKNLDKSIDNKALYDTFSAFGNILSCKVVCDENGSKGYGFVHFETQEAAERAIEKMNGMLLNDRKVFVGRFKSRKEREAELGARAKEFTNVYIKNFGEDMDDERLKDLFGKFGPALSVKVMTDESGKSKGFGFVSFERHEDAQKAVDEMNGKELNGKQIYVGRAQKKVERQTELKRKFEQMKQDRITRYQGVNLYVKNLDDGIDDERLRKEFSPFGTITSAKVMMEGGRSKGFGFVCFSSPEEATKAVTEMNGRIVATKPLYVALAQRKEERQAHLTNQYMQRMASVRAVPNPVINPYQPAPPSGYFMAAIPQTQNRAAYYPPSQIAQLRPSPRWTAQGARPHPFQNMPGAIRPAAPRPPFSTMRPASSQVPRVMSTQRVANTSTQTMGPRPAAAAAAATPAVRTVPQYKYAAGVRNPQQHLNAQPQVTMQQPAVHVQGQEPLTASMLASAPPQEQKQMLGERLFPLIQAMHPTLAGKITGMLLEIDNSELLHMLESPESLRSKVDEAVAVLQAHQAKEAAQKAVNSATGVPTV

How the values were obtained:
[1] = biological target: Y-box binding protein 1 (YB-1) (human (endogenous in HEK293T)) (UniProt P67809); assay: co-IP; total protein extracts of HEK293T cells treated with 250 uM sodium arsenite for 30 min; antibody overnight at 4 °C, Dynabeads Protein G 4 h at 4 °C; results and legend: YB-1 precipitated, PABP1 blotted (methods: anti-PABP1 precipitation, anti-YB-1 blot)
[2] = biological target: Y-box binding protein 1 (YB-1) (human (endogenous in HEK293T)) (UniProt P67809); assay: co-IP; total protein extracts of untreated HEK293T cells (no sodium arsenite); antibody overnight at 4 °C, Dynabeads Protein G 4 h at 4 °C; results and legend: YB-1 precipitated, PABP1 blotted (methods: anti-PABP1 precipitation, anti-YB-1 blot)

binding [1]: binds
Substance: Poly(A)-binding protein 1 (PABP1) (from UniProt P11940 1-636)
binding [2]: no binding (condition: cells left untreated (no Na Ars))
